Measured values as given in the supplement of paper PMC10849652.
Some of the results follow.

Sequences of proteins named here, by UniProt entry; tags and fusion partners are left off. A change or cut given only in a name is not applied to a line headed by its entry.
UniProt Q659A1: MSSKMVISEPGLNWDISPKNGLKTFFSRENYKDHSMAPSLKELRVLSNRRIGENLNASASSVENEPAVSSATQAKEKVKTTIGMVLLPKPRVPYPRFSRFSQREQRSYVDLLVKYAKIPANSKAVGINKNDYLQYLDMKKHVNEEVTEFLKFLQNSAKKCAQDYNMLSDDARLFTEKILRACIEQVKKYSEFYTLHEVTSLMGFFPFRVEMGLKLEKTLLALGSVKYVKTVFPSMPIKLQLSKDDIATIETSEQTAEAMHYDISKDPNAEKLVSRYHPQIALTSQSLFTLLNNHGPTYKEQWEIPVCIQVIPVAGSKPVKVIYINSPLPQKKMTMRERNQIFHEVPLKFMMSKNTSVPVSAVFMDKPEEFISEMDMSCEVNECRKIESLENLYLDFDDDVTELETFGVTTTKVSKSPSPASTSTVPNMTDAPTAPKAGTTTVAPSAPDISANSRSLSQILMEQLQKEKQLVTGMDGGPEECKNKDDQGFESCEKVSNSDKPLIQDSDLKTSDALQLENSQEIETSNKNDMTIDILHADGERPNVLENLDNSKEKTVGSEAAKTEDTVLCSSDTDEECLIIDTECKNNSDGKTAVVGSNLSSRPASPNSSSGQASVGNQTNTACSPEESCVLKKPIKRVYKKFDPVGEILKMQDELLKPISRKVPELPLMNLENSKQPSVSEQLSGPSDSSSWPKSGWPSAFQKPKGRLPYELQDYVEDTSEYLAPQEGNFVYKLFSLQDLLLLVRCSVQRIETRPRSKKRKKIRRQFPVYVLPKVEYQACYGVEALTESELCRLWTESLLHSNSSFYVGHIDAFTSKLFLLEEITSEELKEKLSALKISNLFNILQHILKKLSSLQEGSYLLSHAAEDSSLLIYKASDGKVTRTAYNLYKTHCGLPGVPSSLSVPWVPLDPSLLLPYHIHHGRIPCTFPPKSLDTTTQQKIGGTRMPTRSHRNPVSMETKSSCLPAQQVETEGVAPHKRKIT
UniProt P30939: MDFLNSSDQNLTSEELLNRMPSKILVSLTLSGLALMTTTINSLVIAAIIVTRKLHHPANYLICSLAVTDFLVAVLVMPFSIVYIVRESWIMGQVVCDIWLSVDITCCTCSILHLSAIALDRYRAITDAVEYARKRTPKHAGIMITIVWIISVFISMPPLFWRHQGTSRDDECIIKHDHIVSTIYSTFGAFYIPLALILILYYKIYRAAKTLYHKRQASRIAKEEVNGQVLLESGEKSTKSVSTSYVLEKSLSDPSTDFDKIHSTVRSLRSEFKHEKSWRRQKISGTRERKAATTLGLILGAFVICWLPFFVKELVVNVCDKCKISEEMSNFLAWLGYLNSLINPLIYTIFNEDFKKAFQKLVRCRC
UniProt O43390: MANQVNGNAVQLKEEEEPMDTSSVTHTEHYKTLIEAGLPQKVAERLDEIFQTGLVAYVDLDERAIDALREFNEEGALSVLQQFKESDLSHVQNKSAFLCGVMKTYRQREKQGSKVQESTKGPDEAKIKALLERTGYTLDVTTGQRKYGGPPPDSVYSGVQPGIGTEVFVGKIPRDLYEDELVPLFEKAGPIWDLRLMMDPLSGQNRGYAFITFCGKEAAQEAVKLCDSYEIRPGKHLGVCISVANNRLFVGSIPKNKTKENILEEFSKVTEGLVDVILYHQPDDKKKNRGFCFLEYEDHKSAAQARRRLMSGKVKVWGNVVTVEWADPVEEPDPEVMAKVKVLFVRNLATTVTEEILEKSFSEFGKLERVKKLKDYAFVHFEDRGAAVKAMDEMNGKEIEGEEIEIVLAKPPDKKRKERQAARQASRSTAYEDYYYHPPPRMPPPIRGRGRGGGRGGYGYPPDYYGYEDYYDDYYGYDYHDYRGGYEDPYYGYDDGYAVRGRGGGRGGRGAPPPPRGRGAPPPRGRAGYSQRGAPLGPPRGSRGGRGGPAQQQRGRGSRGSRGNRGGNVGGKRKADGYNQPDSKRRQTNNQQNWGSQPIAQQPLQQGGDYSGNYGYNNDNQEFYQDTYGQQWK
UniProt P17483: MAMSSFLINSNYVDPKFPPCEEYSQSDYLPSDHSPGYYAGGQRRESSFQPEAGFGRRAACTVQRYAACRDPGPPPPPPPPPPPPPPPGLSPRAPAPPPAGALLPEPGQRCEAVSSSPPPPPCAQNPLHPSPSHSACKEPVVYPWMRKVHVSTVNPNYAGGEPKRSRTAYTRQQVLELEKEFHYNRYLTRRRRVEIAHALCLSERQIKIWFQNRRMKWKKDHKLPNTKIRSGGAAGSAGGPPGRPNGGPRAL
UniProt P28356, whole entry, looked up: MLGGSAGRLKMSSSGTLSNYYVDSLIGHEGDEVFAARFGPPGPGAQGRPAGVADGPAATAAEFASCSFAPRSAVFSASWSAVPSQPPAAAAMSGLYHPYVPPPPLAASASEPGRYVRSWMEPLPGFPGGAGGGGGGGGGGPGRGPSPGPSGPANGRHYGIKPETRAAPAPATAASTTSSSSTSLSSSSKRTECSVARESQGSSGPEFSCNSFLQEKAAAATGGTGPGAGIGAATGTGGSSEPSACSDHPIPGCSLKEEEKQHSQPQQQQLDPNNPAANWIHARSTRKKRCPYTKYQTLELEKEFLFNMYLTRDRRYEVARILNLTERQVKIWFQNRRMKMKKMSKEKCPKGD

Tests used:
Test in all cases: log2 fold change, soluble protein after heating vs DMSO (PISA); higher = thermal stabilisation; K562 cells, 10 uM, 30 min; active = over 0.2 and 3.5 SD of the protein, either way, in both replicates (recomputed)
[1] = compound: NC(=O)c1cnc(N[C@@H]2CCCC[C@@H]2N)nc1Nc1cccc(-n2nccn2)c1
Outline: (§1)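 Values are thermal stability changes relative to control samples and are taken from duplicates. They are stated as log2 fold changes. Before quantification by TMTpro 16plex LC-MS/MS with equalised channel sums, K562 cells at 2×10^6 cells/mL were treated with 10 μM compound for 30 min, heated in aliquots for 3 min across 48°C-58°C, pooled, extracted in PBS with 0.5% NP-40 at 4°C, and centrifuged at 21,000xg for 90 min to give the soluble supernatant.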

[2] = compound: NCC(=O)Nc1ccc(-n2nc(C(F)(F)F)cc2-c2ccc3c(ccc4ccccc43)c2)cc1
Outline: as §1

vorinostat = compound: O=C(CCCCCCC(=O)Nc1ccccc1)NO [vorinostat]
Outline: as §1

[3] = compound: O=C1NC(=O)C(c2cnc3ccccn23)=C1c1cn2c3c(cc(F)cc13)CN(C(=O)N1CCCCC1)CC2
Outline: as §1

[4] = compound: NC(=O)Nc1cc(-c2cccc(F)c2)sc1C(=O)N[C@H]1CCCNC1
Outline: as §1

entinostat = compound: Nc1ccccc1NC(=O)c1ccc(CNC(=O)OCc2cccnc2)cc1 [entinostat]
Outline: as §1

citarinostat = compound: O=C(CCCCCCNC(=O)c1cnc(N(c2ccccc2)c2ccccc2Cl)nc1)NO [citarinostat]
Outline: as §1

[5] = compound: c1cc(OCCN2CCCCC2)cc(-c2n[nH]c3ccc(-c4nnc[nH]4)cc23)c1
Outline: as §1

[6] = compound: NC1(c2ccc(-c3nc4ccn5c(=O)[nH]nc5c4cc3-c3ccccc3)cc2)CCC1
Outline: as §1

silmitasertib = compound: O=C(O)c1ccc2c(c1)nc(Nc1cccc(Cl)c1)c1ccncc12 [silmitasertib]
Outline: as §1

Measured: log2 fold change

ICE2 (UniProt Q659A1)
inactive: [1] 0.014 | [2] 0.214 | vorinostat 0.029 | [3] -0.014

HUWE1, A0A087X1S3
inactive: [4] -0.074 | entinostat 0.041 | vorinostat -0.069 | citarinostat -0.046 | [3] -0.132 | [5] -0.151

HTR1F (UniProt P30939)
inactive: [1] -0.119 | vorinostat 0.061

Random excerpt: two entries already listed, in no set order.
HTR1F (UniProt P30939)
inactive: [1] -0.119 | vorinostat 0.061

ICE2 (UniProt Q659A1)
inactive: [1] 0.014 | [2] 0.214 | vorinostat 0.029 | [3] -0.014

Remaining list, next part:

HMBS (UniProt F5H0P4)
inactive: [6] -0.653 | silmitasertib -0.178

HNRNPR (UniProt O43390)
inactive: [4] -0.158 | [6] 0.283 | entinostat -0.088 | citarinostat 0.034 | silmitasertib 0.216 | [3] 0.091 | [5] -0.172

ICOSLG isoform 2 (UniProt O75144)
inactive: [6] 0.241 | [2] 0.114 | silmitasertib 0.104

HOXB4 (UniProt P17483)
inactive: [3] -0.04

HNRNPK isoform 3 (UniProt P61978)
inactive: [4] -0.06 | [6] 0.052 | [2] -0.182 | entinostat 0.023 | vorinostat 0.035 | citarinostat -0.009 | silmitasertib 0.028 | [3] 0.159 | [5] -0.102

HNRNPUL1 (UniProt M0R247)
inactive: [4] -0.056 | [1] -0.629 | entinostat -0.352 | citarinostat -0.227 | [5] -0.014

HOXD9 (UniProt P28356)
inactive: [1] -0.301 | [2] -0.101 | vorinostat 0.085 | citarinostat -0.059 | [5] -0.084

HMBS (UniProt F5H226)
inactive: [4] -0.005 | [6] -0.02 | [2] -0.206 | entinostat 0.038 | vorinostat 0.051 | silmitasertib -0.065
